# From article PMC12711092
# Target: T1, Chlamydomonas CDKL5-GFP (Chlamydomonas reinhardtii) (UniProt L7S2P1)
# T1 sequence: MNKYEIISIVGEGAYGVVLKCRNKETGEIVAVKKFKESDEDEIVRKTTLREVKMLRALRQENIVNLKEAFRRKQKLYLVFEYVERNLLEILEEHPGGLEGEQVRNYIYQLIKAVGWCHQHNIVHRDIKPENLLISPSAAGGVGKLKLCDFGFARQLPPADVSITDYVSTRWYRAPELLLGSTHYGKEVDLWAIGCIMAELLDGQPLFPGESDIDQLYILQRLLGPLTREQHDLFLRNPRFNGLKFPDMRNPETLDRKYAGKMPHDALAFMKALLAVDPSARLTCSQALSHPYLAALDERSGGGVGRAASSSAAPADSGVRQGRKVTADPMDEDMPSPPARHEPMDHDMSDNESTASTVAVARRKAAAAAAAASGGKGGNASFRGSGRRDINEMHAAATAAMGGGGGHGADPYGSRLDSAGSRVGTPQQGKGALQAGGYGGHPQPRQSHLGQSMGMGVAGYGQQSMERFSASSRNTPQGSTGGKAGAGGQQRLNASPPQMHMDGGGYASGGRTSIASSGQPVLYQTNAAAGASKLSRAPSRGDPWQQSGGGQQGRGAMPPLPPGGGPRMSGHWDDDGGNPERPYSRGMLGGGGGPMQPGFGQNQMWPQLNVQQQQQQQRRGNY
# Test: affinity purification with mass spectrometry; anti-GFP immunoprecipitation of CDKL5-GFP from whole-cell lysates of lf5 CDKL5-GFP-TG cells, precipitate analysed by MS; untransformed lf5 lysate as control; two independent experiments; details in S1 Text
row,Substance,binding
1,Cre02.g075900.t1.1 (enzyme),binds
2,Cre12.g499500.t1.1 (enzyme),binds
3,FAP365,binds

# The remaining lines, values ahead:
row,binding,Substance
1,binds,FAP93
2,binds,FAP430

# No constants are given. Whether binding was seen depends on the method and setting. In cells and extracts the contact can be indirect. Here binding means that the protein was enriched with, or labelled near, the bait; the list need not be complete. Where a sequence is shown, tags or fusion partners need not be part of it.
